{"source": "the supplement of paper PMC10338343", "note": "± gives the standard deviation. The entries are a selection whose mix differs from that of the whole data set. Many of these values have a large error.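 Also: 1 nM active piRISC with 0.1 nM target library at 33 °C single turnover.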", "data": [{"test_system": "MIWI (PIWIL1) piRISC loaded with L1MC piRNA (30 nt)", "test": "pre-steady-state target cleavage rate (min^-1); MIWI and MILI are mouse PIWI proteins and EfPiwi is from a freshwater sponge; tags in brackets are library labels; higher = faster piRNA-guided slicing of the target", "settings": "guide: L1MC piRNA 5'p-UAACUAAAUACUAUGCAAGCUGUAGGUCCU; auxiliary factor: none (no GTSF1)", "summary_of_the_method": "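In HEPES–potassium acetate buffer at 33 °C, […] transcribed, DNA-blocked target RNA library was mixed with 1 nM active affinity-purified piRISC carrying one synthetic guide, with or without 500 nM GTSF1 partner protein, for 0–8 or 0–960 min. Uncleaved targets were sequenced and normalised to depth and to weakly complementary targets; three trials were pooled and k3 was capped at 0.0001 min^-1. The pre-steady-state cleavage rate followed from a burst-and-steady-state fit.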", "values": [{"sequence": "AGGACCUACAGCUUCCAUAGUAUUUAGAAA", "pre-steady-state target cleavage rate": "0.0013 ± 0.0065"}, {"sequence": "UCCUGGUACAGCUUGCAUAGUAUUAUCAAA [g7:g24:cont:t1A]", "pre-steady-state target cleavage rate": "0.00257 ± 0.0033"}, {"sequence": "UGGACCUACUCGUUGCAUAGUAUUUAGAAA", "pre-steady-state target cleavage rate": "0.00216 ± 0.0024"}, {"sequence": "UGGACCUACAGCUUGCAUACAUAAAUCAAA [g12:g29:cont:t1A]", "pre-steady-state target cleavage rate": "0.000169 ± 0.018"}, {"sequence": "UCGUGGUACAGCUUGCAUAGUAUUUUCAAA", "pre-steady-state target cleavage rate": "0.00176 ± 0.0032"}, {"sequence": "UCCACCUACAGCAACCAUAGUAUUUAGUAA", "pre-steady-state target cleavage rate": "0.000593 ± 0.0094"}, {"sequence": "AGGACCUACAGCUUGGUAAGUAUUUAGUUA", "pre-steady-state target cleavage rate": "0.00119 ± 0.0059"}, {"sequence": "UCCUGGAUGUCGAACGUUAGUUAUUUAGUUA", "pre-steady-state target cleavage rate": "0.000459 ± 0.016"}, {"sequence": "UGGACCUACAGCUUGCAUAGUUAUUAGAAA", "pre-steady-state target cleavage rate": "0.00123 ± 0.0054"}, {"sequence": "UCCACCUACAGCUUGCAUAGUUAAAUCAAA [g10:g27:cont:t1A]", "pre-steady-state target cleavage rate": "0.000214 ± 0.013"}, {"sequence": "UCCACCUACAGCUUGCAUAGAUAUUAGUUA", "pre-steady-state target cleavage rate": "0.00104 ± 0.006"}, {"sequence": "UGGACCUACAGCUACCAUAGUAUUUAGUAA", "pre-steady-state target cleavage rate": "0.00191 ± 0.0027"}, {"sequence": "UCGACCUACAGCUUGCAUUCUAUUUAGAAA", "pre-steady-state target cleavage rate": "0.00113 ± 0.0048"}, {"sequence": "UCGACCUACAGCUUGCUUAGUAUUUACAAA", "pre-steady-state target cleavage rate": "0.00231 ± 0.0027"}, {"sequence": "UCCACCUACAGCUUGCAUAGAUUUAGUUA", "pre-steady-state target cleavage rate": "0.000373 ± 0.0073"}, {"sequence": "UCGACCUACAGCUUGCAUCAGUAUUUAGUUA", "pre-steady-state target cleavage rate": "0.00102 ± 0.0067"}, {"sequence": "UCCACCUACACGAUGCAUAGUAUUUACAAA", "pre-steady-state target cleavage rate": "0.000578 ± 0.012"}, {"sequence": "UGGACCUACAGCUUGCAAUCUAUUUAGUUA", "pre-steady-state target cleavage rate": "0.00241 ± 0.0031"}, {"sequence": "UCGACCUACAGCUUGCAUAGUAAUUAGAAA", "pre-steady-state target cleavage rate": "0.00244 ± 0.0032"}, {"sequence": "UCCACCUACAGCUUCCAUACUAUUUAGUUA", "pre-steady-state target cleavage rate": "0.00123 ± 0.0051"}, {"sequence": "AGGACCUACAGCUUGCAUAGAUAUUACAAA", "pre-steady-state target cleavage rate": "0.000743 ± 0.011"}, {"sequence": "UCCACCUACAGCUUCGUUAGUAUUUAGUAA", "pre-steady-state target cleavage rate": "0.000735 ± 0.0082"}, {"sequence": "UCGACCUACAGCUUGCUAAGUAUUUAGAAA", "pre-steady-state target cleavage rate": "0.000484 ± 0.0066"}, {"sequence": "UCCACCUACAGCAAGCAUAGUAUUUAGAAA", "pre-steady-state target cleavage rate": "0.000857 ± 0.0076"}, {"sequence": "UCGACCUACAGCUUGCAUACAAUUUACAAA", "pre-steady-state target cleavage rate": "0.000807 ± 0.0086"}, {"sequence": "UCGACCUACAGGAUGCAUAGUAUUUUCAAA", "pre-steady-state target cleavage rate": "0.000697 ± 0.0074"}, {"sequence": "AGGACCUACAGCUUGCAUAGGUAUUUAGUUA", "pre-steady-state target cleavage rate": "0.00139 ± 0.0063"}, {"sequence": "UCCACCUACAGCUUGCAUAGUUAUUAGUAA", "pre-steady-state target cleavage rate": "0.00238 ± 0.0034"}, {"sequence": "UCCUGGAUGUCGAUGCAUACUAUUUAGAUA", "pre-steady-state target cleavage rate": "0.000349 ± 0.014"}, {"sequence": "AGGACCUACAGCUUGCAUAGUAUAAUGAAA", "pre-steady-state target cleavage rate": "0.00256 ± 0.0041"}, {"sequence": "UCGACCUACAGCUUGCAAUCAUAAAUCAAA [g14:g28:cont:t1A]", "pre-steady-state target cleavage rate": "0.000262 ± 0.013"}, {"sequence": "AGGACCUACAGCUUGCAAUGUAUUUAGAAA", "pre-steady-state target cleavage rate": "0.00195 ± 0.0032"}, {"sequence": "UCCUGGAUGUCGAACGAUAGUAUUUAUGUUA", "pre-steady-state target cleavage rate": "0.000188 ± 0.037"}, {"sequence": "UCCACCUACAGCUUGCAUAGUAUAAACAAA", "pre-steady-state target cleavage rate": "0.00134 ± 0.0048"}, {"sequence": "AGGACCUACAGCUUGCAUAGAAUUUUCAAA", "pre-steady-state target cleavage rate": "0.00162 ± 0.0058"}, {"sequence": "UCCACCUACAGCUUGCAUAGUAAAAAGUUA", "pre-steady-state target cleavage rate": "0.00205 ± 0.0027"}, {"sequence": "AGGACCUACAGCUUCGAUAGUAUUUAGUAA", "pre-steady-state target cleavage rate": "0.000612 ± 0.0042"}, {"sequence": "UGCACCUACAGCUUGCAUAGUAUUUACAAA", "pre-steady-state target cleavage rate": "0.00293 ± 0.0035"}]}]}
